# This is one part of the list. Single values are uncertain here, since repeats match poorly.
# Sequences of proteins named here, by UniProt entry; tags and fusion partners are left off.
# UniProt Q15717, whole entry: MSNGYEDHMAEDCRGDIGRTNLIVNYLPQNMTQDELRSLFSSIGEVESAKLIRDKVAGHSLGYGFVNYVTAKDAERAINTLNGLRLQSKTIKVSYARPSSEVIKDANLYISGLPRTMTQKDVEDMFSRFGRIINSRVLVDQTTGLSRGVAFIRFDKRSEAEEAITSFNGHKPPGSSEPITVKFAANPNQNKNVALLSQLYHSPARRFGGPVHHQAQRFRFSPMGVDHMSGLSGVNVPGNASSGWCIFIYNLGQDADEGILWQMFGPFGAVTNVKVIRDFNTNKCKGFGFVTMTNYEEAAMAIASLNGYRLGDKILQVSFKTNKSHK
# Target: HuR (ELAVL1) - TNFalpha ARE RNA complex (UniProt Q15717)
# Test: AlphaScreen HuR-RNA complex signal Z-score relative to positive (Bi-TNF, DMSO) controls (Z-score (SD units of positive control)); higher = more complex signal
# Conditions: screen stage: primary screen; compound concentration: 25 nM
row,Structure (SMILES),AlphaScreen HuR-RNA complex signal Z-score
1,CS(=O)(=O)c1ccc([C@@H](O)[C@@H](CO)NC(=O)C(Cl)Cl)cc1,0.891
2,Clc1ccccc1CN1CCc2sccc2C1,2.96
3,Cc1cc(OC(=O)c2c(C)cc(O)cc2O)cc(O)c1C(=O)O,2.45
4,Nc1ccc(O)c(C(=O)O)c1,1.15
5,Cc1cc(C(C)(C)CC(C)(C)C)ccc1OCCOCC[N+](C)(C)Cc1ccccc1,1.61
6,Cc1cc(NC(=O)C2=C(O)c3ccccc3S(=O)(=O)N2C)no1,1.38
7,CN(C)CCCN1c2ccccc2CCc2ccc(Cl)cc21,4.66
8,COC(=O)C1=C(C)NC(C)=C(C(=O)OC)C1c1ccccc1[N+](=O)[O-],-6.29
9,CO[C@@]1(NC(=O)C(C(=O)O)c2ccc(O)cc2)C(=O)N2C(C(=O)O)=C(CSc3nnnn3C)CO[C@@H]21 (stereo partly specified),-6.26
10,O=c1c(O)c(-c2ccccc2)oc2ccccc12,-0.548
11,C#C[C@]1(O)CC[C@H]2[C@@H]3CCC4=CC(=O)CC[C@@H]4[C@H]3CC[C@@]21C,6.55
12,C#C[C@]1(OC(C)=O)CC[C@H]2[C@@H]3CCC4=C[C@@H](OC(C)=O)CC[C@@H]4[C@H]3CC[C@@]21C,2.35
13,C[C@@H]1CC[C@@]2(OC1)O[C@H]1C[C@H]3[C@@H]4CC[C@H]5C[C@@H](O)CC[C@]5(C)[C@H]4CC[C@]3(C)[C@H]1[C@@H]2C,1.04
14,Nc1ccc(S(=O)(=O)Nc2ncccn2)cc1,6.16
15,Cc1c(Cl)cccc1Nc1ccccc1C(=O)O,1.65
16,CCCSc1ccc2[nH]c(NC(=O)OC)nc2c1,-3.15
17,C[C@@H]1CC[C@H]2C(C)(C)[C@H]3C[C@@]12CC[C@@]3(C)O,1.58
18,CC=C(C)C(=O)OC1C(OC(C)=O)C2(CO)C(O)CC3(C)C(=CCC4C5(C)CCC(OC6OC(C(=O)O)C(OC7OC(CO)C(O)C(O)C7O)C(O)C6OC6OC(CO)C(O)C(O)C6O)C(C)(CO)C5CCC43C)C2CC1(C)C (stereo not drawn) [beta-ESCIN],1.44
19,CC(=O)C1=C(O)C=C2Oc3c(C(C)=O)c(O)c(C)c(O)c3C2(C)C1=O (stereo in doubt),2.44
20,CO[C@H]1/C=C/O[C@@]2(C)Oc3c(C)c(O)c4c(O)c(c(/C=N/N5CCN(C)CC5)c(O)c4c3C2=O)NC(=O)/C(C)=C\C=C\[C@H](C)[C@H](O)[C@@H](C)[C@@H](O)[C@@H](C)[C@H](OC(C)=O)[C@@H]1C,-6.31
21,COc1cc(C)c(C(=O)O)c(O)c1,2.7
22,Cc1ccc(N(CC2=NCCN2)c2cccc(O)c2)cc1,-3.01
23,O=C(O)c1ccccc1-c1c2cc(I)c(=O)c(I)c-2oc2c(I)c(O)c(I)cc12,3.06

# Reprinted at random: 3 compounds from above.
row,Structure (SMILES),AlphaScreen HuR-RNA complex signal Z-score
6,Cc1cc(NC(=O)C2=C(O)c3ccccc3S(=O)(=O)N2C)no1,1.38
5,Cc1cc(C(C)(C)CC(C)(C)C)ccc1OCCOCC[N+](C)(C)Cc1ccccc1,1.61
21,COc1cc(C)c(C(=O)O)c(O)c1,2.7

# More structures follow:

row,Structure (SMILES),AlphaScreen HuR-RNA complex signal Z-score
1,c1ccc(CC2=NCCN2)cc1,2.4
2,NCCCCC(=O)O,1.65
3,OCCN1CCN(CCCN2c3ccccc3Sc3ccc(C(F)(F)F)cc32)CC1,-0.0557
4,CC(C)(Oc1ccc(CCNC(=O)c2ccc(Cl)cc2)cc1)C(=O)O,0.358
5,CC1=CC(=O)[C@H]2C(C)(C)CCC[C@]2(C)[C@@]1(O)CCc1ccoc1,3.57
6,CC(=O)OCC(=O)[C@H]1CC[C@H]2[C@@H]3CC=C4C[C@@H](O)CC[C@]4(C)[C@H]3CC[C@]12C,0.605
7,Clc1ccc2c(c1)C(N1CCNCC1)=Nc1ccccc1O2,3.93
8,CC(C)[C@@H](C)/C=C/[C@@H](C)[C@H]1CC[C@H]2C3=CC=C4C[C@@H](O)CC[C@]4(C)[C@H]3CC[C@]12C,2.61
9,O=C1c2ccccc2C(=O)C1c1ccccc1,5.5
10,O=C(O)CCc1nc(-c2ccccc2)c(-c2ccccc2)o1,0.955
11,CC[C@H]1OC(=O)[C@H](C)[C@@H](O[C@H]2C[C@@](C)(OC)[C@@H](O)[C@H](C)O2)[C@H](C)[C@@H](O[C@@H]2O[C@H](C)C[C@H](N(C)C)[C@H]2O)[C@](C)(O)C[C@@H](C)C(=O)[C@H](C)[C@@H](O)[C@]1(C)O,-0.744
12,CC1=C(/C=C/C(C)=C/C=C/C(C)=C/C=C/C=C(C)/C=C/C=C(C)/C=C/C2=C(C)CCCC2(C)C)C(C)(C)CCC1 [beta-CAROTENE],0.313
13,NC(=O)c1ccccc1O,11.2
14,CCOC(=O)N1CCC(=C2c3ccc(Cl)cc3CCc3cccnc32)CC1,0.757
15,Nc1nc(F)nc2c1ncn2[C@@H]1O[C@H](COP(=O)(O)O)[C@@H](O)[C@@H]1O,1.08
16,COc1ccc(-c2coc3cc(O)ccc3c2=O)cc1,2.47
17,Oc1c(Br)cc(Br)c2cccnc12,1.23
18,CCC(=O)O[C@H]1CC[C@H]2[C@@H]3CCc4cc(O)ccc4[C@H]3CC[C@]12C,1.11
19,CN(C)[C@@H]1C(O)=C(C(N)=O)C(=O)[C@@]2(O)C(O)=C3C(=O)c4c(O)cccc4[C@@](C)(O)[C@H]3C[C@@H]12,0.697
20,COC(=O)[C@H](c1ccccc1Cl)N1CCc2sccc2C1,1
21,C[C@]12CCC(=O)C=C1CC[C@@H]1[C@@H]2C(=O)C[C@@]2(C)[C@H]1CC[C@]2(O)C(=O)CO,4.08
22,CCCCCC1C(=O)CCC1CC(=O)OC (stereo unspecified),2.67
23,Nc1ccc(S(=O)(=O)NC(=O)c2ccccc2)cc1,11.2

# — the supplement of paper PMC3741180, “A Novel High Throughput Biochemical Assay to Evaluate the HuR Protein-RNA Complex Formation” (PLoS ONE, 2013)
